Reference: patent publication US10407465B2, “Peptides enhancing neuronal outgrowth and application thereof” (Schweitzer Biotech Company Ltd., priority 2014, dated 2019)
Structures can show the parent of a compound that is named as a salt.

What was measured:
[1] = test system: Sco-induced amnesia animal model; experiment: Inhibitory avoidance learning task, scopolamine-induced memory deficits; format: in vivo, Sprague-Dawley rats; conditions: scopolamine 1.5 mg/kg/day i.p. alone; 7 days after footshock; vs control; P<0.05
Text: Rats were intraperitoneally injected with Sco, C5 peptide and Sco (C5+Sco group), C6 peptide and Sco (C6+Sco group), and DMSO/PBS (negative control group), respectively, as described in Example 5.
The apparatus consisted of a trough-shaped alley divided by a sliding door that separates an illuminated safety compartment and a dark compartment. A shock generator that produced current was connected to the floor of the dark compartment (UGO Basile, Comerio VA, Italy). The behavioral task, including the training and testing procedures, was recorded between 8:00 AM and 6:00 PM. Before the experiment, the rats were habituated in a dim room for 1 hour so that they could adjust to the environment. In the training phase, a rat was placed at the far end of the illuminated compartment facing away from the door. As the rat turned around, the door shut, and a 1 mA/s footshock was given twice. The rat was then removed from the alley and returned to its cage. At different times after training (1 day and 7 days later), the retention test was given. Rats were tested after 1 day and 7 days in the same manner as in the training, but without receiving a shock. Testing was terminated either when the rat entered the dark chamber or after 600 seconds without entry. […]

[2] = test system: Sco-induced amnesia animal model; experiment: Step-down passive avoidance test, scopolamine-induced memory deficits; format: in vivo, Sprague-Dawley rats; conditions: scopolamine 1.5 mg/kg/day alone; 1 day after footshock; vs control; P<0.05
Procedure: Rats were intraperitoneally injected with Sco, C5 peptide and Sco (C5+Sco group), C6 peptide and Sco (C6+Sco group), and DMSO/PBS (negative control group), respectively, as described in Example 6.
Animals were familiar to the instrument 24 hours before training. Next day rats placed on the elevated platform situated in the center of the floor of the passive avoidance test box and the latency to stepping down recorded. On the third day of the experiment immediately after stepping down, animals received mild electric shock (3V, 3 seconds duration, D.C.) through the grid floor and then returned to their home cages. On the following day (as 24 hours retention interval) rats placed on the platform again while no electric shock was given to them. Latency to step down recorded. If the rat remained on the platform for the 5 minutes, it assigned a maximum score of 300 seconds.
Both C5 peptide and C6 peptide ameliorate scopolamine-induced memory deficits. Rats were randomly divided into negative control group, Scopolamine only group, (C5+Sco) group and (C6+Sco) group, and rats in the four groups were injected with vehicle (negative control group and scopolamine only group), C5 peptide (54 μg/kg/day, C5+Sco group), and C6 peptide (5.4 μg/kg/day, C6+Sco group), respectively, for 14 consecutive days. […]

CN1[C@@H]2C[C@@H](OC(=O)[C@H](CO)c3ccccc3)C[C@H]1[C@@H]1O[C@@H]12 [Sco, Scopolamine hydrochloride]
retention time in the illuminated chamber [1]: less retention time in the illuminated chamber
retention time on the stage [2]: less retention time on the stage
